The supplement of paper PMC8728848
This is one part of the list.

Columns and labels:
Test in all cases: glycan array binding signal (z-score within array); higher = stronger binding
Conditions in all cases: glycan notation: IUPAC condensed, linker removed
[1] = molecular target: Fuc(a1-2)[Gal(a1-3)]Gal(b1-4)GlcNAc(b1-2)Man(a1-3)[Fuc(a1-2)[Gal(a1-3)]Gal(b1-4)GlcNAc(b1-2)Man(a1-6)]Man(b1-4)GlcNAc(b1-4)[Fuc(a1-6)]GlcNAc
Method in brief: (§1)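 The Consortium for Functional Glycomics database supplied 3228 glycan arrays, of which those lacking an available protein sequence were dropped. The binding signal, a within-array Z-score, was averaged across arrays of the same protein sequence and across linkers. Negative scores can be read as non-binding.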

[2] = molecular target: Fuc(a1-2)[Gal(a1-3)]Gal(b1-4)GlcNAc(b1-3)GalNAc
Method in brief: as §1

[3] = molecular target: Fuc(a1-2)[Gal(a1-3)]Gal(b1-4)GlcNAc(b1-3)[Fuc(a1-2)[Gal(a1-3)]Gal(b1-4)GlcNAc(b1-6)]GalNAc
Method in brief: as §1

[4] = molecular target: Fuc(a1-2)[Gal(a1-3)]Gal(b1-4)GlcNAc(b1-6)GalNAc
Method in brief: as §1

[5] = molecular target: Fuc(a1-2)[Gal(a1-3)]Gal(b1-4)[Fuc(a1-3)]Glc
Method in brief: as §1

[6] = molecular target: Fuc(a1-2)[Gal(a1-3)]Gal(b1-4)[Fuc(a1-3)]GlcNAc
Method in brief: as §1

[7] = molecular target: Fuc(a1-2)[Gal(a1-3)]Gal(b1-4)[Fuc(a1-3)]GlcNAc(b1-3)GalNAc
Method in brief: as §1

[8] = molecular target: Fuc(a1-2)[Gal(a1-4)]Gal(b1-4)GlcNAc
Method in brief: as §1

[9] = molecular target: Fuc(a1-2)[GalNAc(a1-3)]Gal
Method in brief: as §1

[10] = molecular target: Fuc(a1-2)[GalNAc(a1-3)]Gal(b1-3)GalNAc(a1-3)[Fuc(a1-2)]Gal(b1-4)GlcNAc
Method in brief: as §1

[11] = molecular target: Fuc(a1-2)[GalNAc(a1-3)]Gal(b1-3)GalNAc(b1-3)Gal(a1-4)Gal(b1-4)Glc
Method in brief: as §1

[12] = molecular target: Fuc(a1-2)[GalNAc(a1-3)]Gal(b1-3)GlcNAc
Method in brief: as §1

[13] = molecular target: Fuc(a1-2)[GalNAc(a1-3)]Gal(b1-3)GlcNAc(b1-2)Man(a1-3)[Fuc(a1-2)[GalNAc(a1-3)]Gal(b1-3)GlcNAc(b1-2)Man(a1-6)]Man(b1-4)GlcNAc(b1-4)GlcNAc
Method in brief: as §1

[14] = molecular target: Fuc(a1-2)[GalNAc(a1-3)]Gal(b1-3)GlcNAc(b1-2)Man(a1-3)[Fuc(a1-2)[GalNAc(a1-3)]Gal(b1-3)GlcNAc(b1-2)Man(a1-6)]Man(b1-4)GlcNAc(b1-4)[Fuc(a1-6)]GlcNAc
Method in brief: as §1

[15] = molecular target: Fuc(a1-2)[GalNAc(a1-3)]Gal(b1-3)GlcNAc(b1-3)GalNAc
Method in brief: as §1

[16] = molecular target: Fuc(a1-2)[GalNAc(a1-3)]Gal(b1-3)GlcNAc(b1-6)GalNAc
Method in brief: as §1

[17] = molecular target: Fuc(a1-2)[GalNAc(a1-3)]Gal(b1-4)Glc
Method in brief: as §1

[18] = molecular target: Fuc(a1-2)[GalNAc(a1-3)]Gal(b1-4)GlcNAc
Method in brief: as §1

[19] = molecular target: Fuc(a1-2)[GalNAc(a1-3)]Gal(b1-4)GlcNAc(b1-2)Man
Method in brief: as §1

[20] = molecular target: Fuc(a1-2)[GalNAc(a1-3)]Gal(b1-4)GlcNAc(b1-2)Man(a1-3)[Fuc(a1-2)[GalNAc(a1-3)]Gal(b1-4)GlcNAc(b1-2)Man(a1-6)]Man(b1-4)GlcNAc(b1-4)GlcNAc
Method in brief: as §1

[21] = molecular target: Fuc(a1-2)[GalNAc(a1-3)]Gal(b1-4)GlcNAc(b1-2)Man(a1-3)[Fuc(a1-2)[GalNAc(a1-3)]Gal(b1-4)GlcNAc(b1-2)Man(a1-6)]Man(b1-4)GlcNAc(b1-4)[Fuc(a1-6)]GlcNAc
Method in brief: as §1

[22] = molecular target: Fuc(a1-2)[GalNAc(a1-3)]Gal(b1-4)GlcNAc(b1-3)Gal(b1-4)GlcNAc
Method in brief: as §1

B1: PX9961KLbvu-535-38-535 (Bacteroides vulgatus) (protein)
chain: DKAYTDAESYTKGLHKIYSVWALSGQDGSSSSDISGLDAGNTALLRCWWTLQEQPTDEMKNAWNDAWCTEVNYMTWTTNKVEPIEGVYQRCMYIVALVNEFLKNIPNAPESIDKESYIAQARFNRAFAYYVLMDMFALPPFITEKNYSIEPAPLSREDLFNWIEAELNEIKPNLPSPRSEYGVADQAVASALLARMYLNAEIYTGKARYTECINACNEVIKAGYQLADNYADLFKADNGENPDTKKEIIYPIIFDGDKTQSWGMAAIIIGARGAEDKDVLLAHSGVDQGWAGFRATSNLVHLFDFQNDEEPKASEIQDKRGIFYDKGRSIDITSSVSGTFETEGWSVFKFSNLNSNGQPGKNTLWVDTDFPMFRLGDIYLMYAEAVARGGEGSKASAVEYINALRKRAYGDDKHNISENWLEENNFRNLLDERGRELYWEGIRRTDLVRFDLLTSGSYTWDFKGGINTGVGVNKRYNVYPIPVTDLTVNGNLQQNEGY
In the case of B1, the “glycan array binding signal (z-score)” value [1] is reported as -0.013, the “glycan array binding signal (z-score)” value [2] is reported as -0.263 and the “glycan array binding signal (z-score)” value [3] is reported as -0.09. The “glycan array binding signal (z-score)” value [4] was -0.819, the “glycan array binding signal (z-score)” value [5] was -0.09 and the “glycan array binding signal (z-score)” value [6] was 0.203. The “glycan array binding signal (z-score)” value [7] was 0.007, the “glycan array binding signal (z-score)” value [8] was -0.189 and the “glycan array binding signal (z-score)” value [9] was -0.346. For the same binder, the “glycan array binding signal (z-score)” value [10] was -0.903, the “glycan array binding signal (z-score)” value [11] was 0.178 and the “glycan array binding signal (z-score)” value [12] was -0.416. The “glycan array binding signal (z-score)” value [13] was 0.702, the “glycan array binding signal (z-score)” value [14] was -0.202 and the “glycan array binding signal (z-score)” value [15] was -0.113. For the same binder, the “glycan array binding signal (z-score)” value [16] was -0.798, the “glycan array binding signal (z-score)” value [17] was -0.447 and the “glycan array binding signal (z-score)” value [18] was -0.625. For the same binder, the “glycan array binding signal (z-score)” value [19] was -0.155, the “glycan array binding signal (z-score)” value [20] was 0.336 and the “glycan array binding signal (z-score)” value [21] was 0.275. The “glycan array binding signal (z-score)” value [22] was -0.947.
